In patent publication US20230272047A1:
No constants are given. Whether binding was seen depends on the method and setting. Some entries that bind do so weakly or less than the wild type. For part of these data: Sequences can lack the tags named with a protein. Each block holds one binder with its values, some of them ahead of it.

Columns and labels:
[1] = biological target: human transferrin receptor 1 ectodomain, biotinylated (human) (UniProt P02786); assay: yeast surface display, flow cytometry
[2] = biological target: human transferrin receptor 1 ectodomain, biotinylated (human) (UniProt P02786); assay: yeast surface display, flow cytometry, 100,000 cells
[3] = biological target: human transferrin receptor 1 ectodomain, biotinylated (human) (UniProt P02786); assay: single concentration biolayer interferometry (1 µM design)

binding [1]: binds | binding [2]: binds
B1: 2DS25 displayed on the yeast surface as Myc tagged Aga2p fusion protein (designed binder, not shown: large carriers; small tags and cut ends)
chain: DEEEIQKAIEELLRKGVSEEEAAIIIAQRFNVAVVVVVQDERQAKHISEYIRRYIPEADVILFANIVVIKVETEELRKRVWEAAQKAY

binding [3]: binds
B2: 3DS4 (designed binder)
chain: DEEEEFKRRVQEYQEKYKNENDERDAEAALRAFNAVVVIVVRSEEEAERIAQEIRDRVPEAQVIIYNNLVVIRVDSREAAERVWKIAQEAL
